The target of test [1] is E-HA/TurboID^Site3 (SARS-CoV-2) (UniProt P0DTC4). Put plainly: proximity labelling.
For test [2], the target named is E-HA/TurboID^Site4 (SARS-CoV-2) (UniProt P0DTC4). Put plainly: proximity labelling.

Sequences of proteins named here, by UniProt entry; tags and fusion partners are left off.
UniProt P0DTC4: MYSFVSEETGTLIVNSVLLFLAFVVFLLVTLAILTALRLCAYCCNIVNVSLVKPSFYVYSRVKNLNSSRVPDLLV
UniProt Q07157: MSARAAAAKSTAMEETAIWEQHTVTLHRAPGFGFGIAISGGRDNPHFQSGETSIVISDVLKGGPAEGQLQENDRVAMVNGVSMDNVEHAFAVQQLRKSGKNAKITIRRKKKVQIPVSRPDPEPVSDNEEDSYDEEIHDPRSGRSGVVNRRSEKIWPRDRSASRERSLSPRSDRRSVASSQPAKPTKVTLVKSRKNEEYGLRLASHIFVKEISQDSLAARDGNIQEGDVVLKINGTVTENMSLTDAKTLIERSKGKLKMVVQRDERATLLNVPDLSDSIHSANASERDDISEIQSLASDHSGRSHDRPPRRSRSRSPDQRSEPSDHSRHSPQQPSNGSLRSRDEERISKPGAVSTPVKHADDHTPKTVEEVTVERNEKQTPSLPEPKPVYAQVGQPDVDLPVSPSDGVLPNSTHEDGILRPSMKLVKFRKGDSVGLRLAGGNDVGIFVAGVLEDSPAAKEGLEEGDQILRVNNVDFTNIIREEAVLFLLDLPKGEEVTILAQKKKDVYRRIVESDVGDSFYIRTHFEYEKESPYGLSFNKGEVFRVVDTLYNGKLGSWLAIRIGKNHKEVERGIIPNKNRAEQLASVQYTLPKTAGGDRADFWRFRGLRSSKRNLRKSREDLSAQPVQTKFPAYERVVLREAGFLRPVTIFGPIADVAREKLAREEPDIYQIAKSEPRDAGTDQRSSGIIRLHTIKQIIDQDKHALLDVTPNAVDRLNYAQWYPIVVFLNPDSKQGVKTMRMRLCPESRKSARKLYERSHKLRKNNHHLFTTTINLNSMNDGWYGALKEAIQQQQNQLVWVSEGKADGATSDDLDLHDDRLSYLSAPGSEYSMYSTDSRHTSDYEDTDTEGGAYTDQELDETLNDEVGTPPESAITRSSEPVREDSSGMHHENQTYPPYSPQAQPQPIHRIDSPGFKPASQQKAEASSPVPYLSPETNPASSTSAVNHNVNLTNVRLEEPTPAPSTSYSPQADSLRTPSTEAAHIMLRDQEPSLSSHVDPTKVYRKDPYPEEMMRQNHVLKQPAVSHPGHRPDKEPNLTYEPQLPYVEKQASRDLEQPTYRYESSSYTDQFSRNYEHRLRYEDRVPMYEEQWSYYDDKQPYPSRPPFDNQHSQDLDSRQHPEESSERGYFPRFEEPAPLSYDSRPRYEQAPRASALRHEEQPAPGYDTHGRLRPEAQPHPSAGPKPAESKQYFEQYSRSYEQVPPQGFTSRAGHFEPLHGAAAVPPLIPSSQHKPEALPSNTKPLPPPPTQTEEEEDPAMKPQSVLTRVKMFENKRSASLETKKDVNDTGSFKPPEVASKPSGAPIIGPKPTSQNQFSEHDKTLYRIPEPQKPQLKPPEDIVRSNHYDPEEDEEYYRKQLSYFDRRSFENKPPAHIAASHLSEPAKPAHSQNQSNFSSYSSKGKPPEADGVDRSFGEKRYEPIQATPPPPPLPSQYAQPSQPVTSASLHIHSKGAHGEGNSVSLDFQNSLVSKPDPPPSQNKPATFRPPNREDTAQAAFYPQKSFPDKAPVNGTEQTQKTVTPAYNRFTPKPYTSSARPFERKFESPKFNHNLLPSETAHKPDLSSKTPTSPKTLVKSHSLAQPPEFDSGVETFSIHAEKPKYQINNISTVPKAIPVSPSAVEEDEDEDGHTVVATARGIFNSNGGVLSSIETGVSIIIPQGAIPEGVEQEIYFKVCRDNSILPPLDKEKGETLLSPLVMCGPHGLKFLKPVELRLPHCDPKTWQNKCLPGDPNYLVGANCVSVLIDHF

Results are given in words; binding and its absence hold for the method and conditions named. Binding seen in cells or lysates may run through a third protein. Here binding means that the protein was enriched with, or labelled near, the bait; the list need not be complete.

On to “tight junction protein–1 (TJP1) (from UniProt Q07157 1-1748)”, for which the binding entry in test [1] and in test [2] was “binds” in each case.

The values are drawn from publication PMC10990277.
